Some of these results come from one statement about several compounds together.
Target: T1, PI3Kalpha (Homo sapiens, UniProt P42336)
T1 construct: His (N); host or cells: SF9 insect cells (baculovirus co-infection)
Experiment: PI3K enzyme HTRF assay (PI3Kalpha)
Format: biochemical
Source text: Active phosphatidylinositol 3′ kinase (PI3K) enzyme is purified at Millennium Pharmaceuticals from SF9 insect cells (Invitrogen) co-infected with baculovirus containing amino-terminal His-tagged p110α and p85α expression constructs.
The PI3K enzyme HTRF® assay makes use of an energy transfer complex comprised of biotin-PI(3,4,5)P3, Europhium labeled anti-GST monoclonal antibody, a GST-tagged GRP1 pleckstrin homology (PH) domain, and Streptavidin-APC (allophycocyanin). Excitation of the Europium in the complex results in a stable time-resolved fluorescence resonance energy transfer (FRET) signal. Phosphatidylinositol 3,4,5 triphosphate (PI(3,4,5)P3, the product of PI3K, disrupts the energy transfer complex by competing with biotin-PI(3,4,5)P3 for binding to the GRP1 PH domain, resulting in a decreased fluorescent signal. Inhibitors of PI3K in the reaction prevent a decrease in the fluorescent signal.
PI3K enzyme (325 pM) is incubated with di-C8 PI(4,5)P2 substrate (3.5 μM, CellSignals, Inc.) in assay buffer (50 mM HEPES pH 7.0, 5 mM DTT, 150 mM NaCl, 10 mM β-glycerophosphate, 5 mM MgCl2, 0.25 mM sodium cholate, 0.001% CHAPS) containing 25 μM ATP and 0.5 μL of test compound (in 100% DMSO) at multiple concentrations in a final volume of 20.5 μL in 384 well plates for 30 min at 22-23° C. […] Fluorescent signal for each well is then measured on an LJL_Analyst (Molecular Devices). […]

Protein sequences, listed by entry. Tags and fused reporters are not part of them.
UniProt P42336, whole entry: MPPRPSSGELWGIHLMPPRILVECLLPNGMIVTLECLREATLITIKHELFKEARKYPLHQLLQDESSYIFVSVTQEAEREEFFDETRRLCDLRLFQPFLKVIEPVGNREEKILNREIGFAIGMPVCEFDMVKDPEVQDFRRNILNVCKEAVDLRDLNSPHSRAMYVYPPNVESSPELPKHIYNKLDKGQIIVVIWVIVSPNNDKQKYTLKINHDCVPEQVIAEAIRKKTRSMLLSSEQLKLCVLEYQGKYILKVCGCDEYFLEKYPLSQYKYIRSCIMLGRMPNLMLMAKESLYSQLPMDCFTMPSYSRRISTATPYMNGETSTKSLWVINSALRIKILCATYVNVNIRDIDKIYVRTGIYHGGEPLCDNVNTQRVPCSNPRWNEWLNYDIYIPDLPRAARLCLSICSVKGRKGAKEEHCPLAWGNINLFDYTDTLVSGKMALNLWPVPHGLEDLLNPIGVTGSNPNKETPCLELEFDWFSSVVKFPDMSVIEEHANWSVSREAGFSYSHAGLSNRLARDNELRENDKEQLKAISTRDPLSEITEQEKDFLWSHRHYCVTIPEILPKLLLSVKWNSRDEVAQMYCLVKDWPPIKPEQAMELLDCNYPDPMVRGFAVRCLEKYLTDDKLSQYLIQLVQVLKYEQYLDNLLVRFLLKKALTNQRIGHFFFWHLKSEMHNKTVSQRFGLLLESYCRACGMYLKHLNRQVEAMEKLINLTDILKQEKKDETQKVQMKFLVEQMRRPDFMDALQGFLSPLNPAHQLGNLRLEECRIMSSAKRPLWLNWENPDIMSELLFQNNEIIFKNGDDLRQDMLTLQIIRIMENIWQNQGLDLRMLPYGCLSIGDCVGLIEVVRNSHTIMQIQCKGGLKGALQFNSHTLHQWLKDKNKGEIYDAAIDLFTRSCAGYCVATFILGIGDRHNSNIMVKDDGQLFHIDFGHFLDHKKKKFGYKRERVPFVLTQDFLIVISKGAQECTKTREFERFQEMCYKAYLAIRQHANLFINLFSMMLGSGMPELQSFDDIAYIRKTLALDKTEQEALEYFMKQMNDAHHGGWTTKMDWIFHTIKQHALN

Compound	IC50
CC(=O)Nc1cc(-c2nc(-c3ccc(Cl)cc3Cl)c(-c3ncc[nH]3)s2)ccn1 [Example 5-C, N-{4-[4-(2,4-Dichlorophenyl)-5-(1H-imidazol-2-yl)-1,3-thiazol-2-yl]pyridin-2-yl}acetamide]	< 100 nM
O=C1CCc2c(-c3nc(-c4ccc(Cl)cc4Cl)c(-c4ncc[nH]4)s3)ccnc2N1 [Example D-1, 5-[4-(2,4-dichlorophenyl)-5-(1H-imidazol-2-yl)-1,3-thiazol-2-yl]-3,4-dihydro-1,8-naphthyridin-2(1H)-one]	< 100 nM
